Assay results as given in article PMC9170289.
No constants are given. Whether binding was seen depends on the method and setting. For part of these data: Binding can be weak; no strength is given. Each block holds one binder with its values, some of them ahead of it.

Sequences of proteins named here, by UniProt entry; tags and fusion partners are left off. A change or cut given only in a name is not applied to a line headed by its entry.
UniProt P53550: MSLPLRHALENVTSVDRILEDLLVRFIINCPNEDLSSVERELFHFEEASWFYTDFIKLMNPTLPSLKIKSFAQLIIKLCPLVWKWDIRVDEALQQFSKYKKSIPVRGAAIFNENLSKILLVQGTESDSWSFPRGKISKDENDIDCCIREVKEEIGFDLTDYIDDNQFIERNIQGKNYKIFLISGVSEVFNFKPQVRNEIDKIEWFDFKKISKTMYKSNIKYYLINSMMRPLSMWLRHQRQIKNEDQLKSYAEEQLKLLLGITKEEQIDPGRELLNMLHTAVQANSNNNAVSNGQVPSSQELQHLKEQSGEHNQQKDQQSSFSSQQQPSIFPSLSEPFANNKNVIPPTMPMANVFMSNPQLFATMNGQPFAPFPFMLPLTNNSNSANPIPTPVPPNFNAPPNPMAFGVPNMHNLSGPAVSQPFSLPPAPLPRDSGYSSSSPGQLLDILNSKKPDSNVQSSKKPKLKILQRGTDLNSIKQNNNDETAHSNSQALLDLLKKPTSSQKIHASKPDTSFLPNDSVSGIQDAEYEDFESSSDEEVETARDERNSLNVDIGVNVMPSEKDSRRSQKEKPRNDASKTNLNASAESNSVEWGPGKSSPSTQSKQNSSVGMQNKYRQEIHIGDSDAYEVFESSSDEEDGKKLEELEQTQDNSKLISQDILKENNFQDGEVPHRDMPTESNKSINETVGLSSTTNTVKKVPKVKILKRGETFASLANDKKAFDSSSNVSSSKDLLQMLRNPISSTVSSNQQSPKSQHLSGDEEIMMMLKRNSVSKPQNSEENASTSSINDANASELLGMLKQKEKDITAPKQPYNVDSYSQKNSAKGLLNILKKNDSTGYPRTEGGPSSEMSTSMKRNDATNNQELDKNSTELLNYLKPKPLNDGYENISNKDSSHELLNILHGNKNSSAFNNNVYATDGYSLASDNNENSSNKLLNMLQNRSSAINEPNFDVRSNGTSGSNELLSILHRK

Experiments:
Assay in all cases: two-hybrid; GAL4(DB) fusion and GAL4(AD) fusion cotransformed into the wild-type tester strain GGY1::171; X-Gal colony colour on SSX plates, 30°C; pairs said to be unaffected were also tested in upf1Δ, pat1Δ, scd6Δ, edc3Δ or dcp2-N245 derivatives
[1] = biological target: Dcp2 ID (inhibitory element IE deleted) (S. cerevisiae) (UniProt P53550)
[2] = biological target: Dcp2 LD1-4 (leucine-rich motifs L1 to L4 deleted) (S. cerevisiae) (UniProt P53550)
[3] = biological target: Dcp2 LD9-2 (leucine-rich motifs L9 to L2 deleted) (S. cerevisiae) (UniProt P53550)
[4] = biological target: Dcp2 LD1-5 (leucine-rich motifs L1 to L5 deleted) (S. cerevisiae) (UniProt P53550)
[5] = biological target: Dcp2 U1D1-U1D2 (both Upf1-binding motifs deleted) (S. cerevisiae) (UniProt P53550)
[6] = biological target: Dcp2 LD1-8 (leucine-rich motifs L1 to L8 deleted) (S. cerevisiae) (UniProt P53550)
[7] = biological target: Dcp2 E3D (Edc3-binding motif E3 deleted) (S. cerevisiae) (UniProt P53550)
[8] = biological target: Dcp2 LD1-7 (leucine-rich motifs L1 to L7 deleted) (S. cerevisiae) (UniProt P53550)
[9] = biological target: Dcp2 LD9-6 (leucine-rich motifs L9 to L6 deleted) (S. cerevisiae) (UniProt P53550)
[10] = biological target: Dcp2 LD1-9 (all nine leucine-rich motifs L1 to L9 deleted) (S. cerevisiae) (UniProt P53550)
[11] = biological target: Dcp2 LD9-4 (leucine-rich motifs L9 to L4 deleted) (S. cerevisiae) (UniProt P53550)
[12] = biological target: Dcp2 LD9-3 (leucine-rich motifs L9 to L3 deleted) (S. cerevisiae) (UniProt P53550)
[13] = biological target: Dcp2 LD1-6 (leucine-rich motifs L1 to L6 deleted) (S. cerevisiae) (UniProt P53550)
[14] = biological target: Dcp2 U1D2 (second Upf1-binding motif U1_2 deleted) (S. cerevisiae) (UniProt P53550)
[15] = biological target: Dcp2 U1D1 (first Upf1-binding motif U1_1 deleted) (S. cerevisiae) (UniProt P53550)
[16] = biological target: Dcp2 E3D1-U1D1-LD1-9 (S. cerevisiae) (UniProt P53550)
[17] = biological target: Dcp2 E3D-U1D2-LD1-9 (S. cerevisiae) (UniProt P53550)
[18] = biological target: Dcp2 E3D1-U1D2-LD1-9 (S. cerevisiae) (UniProt P53550)
[19] = biological target: Dcp2 E3D-U1D1-LD1-9 (S. cerevisiae) (UniProt P53550)
[20] = biological target: Dcp2 LD1-3 (leucine-rich motifs L1 to L3 deleted) (S. cerevisiae) (UniProt P53550)
[21] = biological target: Dcp2 LD9 (last leucine-rich motif L9 deleted) (S. cerevisiae) (UniProt P53550)

binding [1]: binds
binding [5]: binds
binding [7]: no binding
B1: Edc3 (protein, UniProt P39998 1-551)
chain: MSQFVGFGVQVELKDGKLIQGKIAKATSKGLTLNDVQFGDGGKSQAFKVRASRLKDLKVLTVASQSGKRKQQRQQQQQNDYNQNRGEHIDWQDDDVSKIKQQEDFDFQRNLGMFNKKDVFAQLKQNDDILPENRLQGHNRKQTQLQQNNYQNDELVIPDAKKDSWNKISSRNEQSTHQSQPQQDAQDDLVLEDDEHEYDVDDIDDPKYLPITQSLNITHLIHSATNSPSINDKTKGTVINDKDQVLAKLGQMIISQSRSNSTSLPAANKQTTIRSKNTKQNIPMATPVQLLEMESITSEFFSINSAGLLENFAVNASFFLKQKLGGRARLRLQNSNPEPLVVILASDSNRSGAKALALGRHLCQTGHIRVITLFTCSQNELQDSMVKKQTDIYKKCGGKIVNSVSSLESAMETLNSPVEIVIDAMQGYDCTLSDLAGTSEVIESRIKSMISWCNKQRGSTKVWSLDIPNGFDAGSGMPDIFFSDRIEATGIICSGWPLIAINNLIANLPSLEDAVLIDIGIPQGAYSQRTSLRKFQNCDLFVTDGSLLLDL
binding [2]: binds
binding [3]: binds
binding [4]: binds
binding [6]: binds
binding [8]: binds
binding [9]: binds
binding [10]: binds
binding [11]: binds
binding [12]: binds
binding [13]: binds

binding [14]: binds
binding [1]: binds
binding [15]: binds
binding [5]: no binding
binding [7]: binds
B2: Upf1 (protein, UniProt P30771 1-971)
chain: MVGSGSHTPYDISNSPSDVNVQPATQLNSTLVEDDDVDNQLFEEAQVTETGFRSPSASDNSCAYCGIDSAKCVIKCNSCKKWFCNTKNGTSSSHIVNHLVLSHHNVVSLHPDSDLGDTVLECYNCGRKNVFLLGFVSAKSEAVVVLLCRIPCAQTKNANWDTDQWQPLIEDRQLLSWVAEQPTEEEKLKARLITPSQISKLEAKWRSNKDATINDIDAPEEQEAIPPLLLRYQDAYEYQRSYGPLIKLEADYDKQLKESQALEHISVSWSLALNNRHLASFTLSTFESNELKVAIGDEMILWYSGMQHPDWEGRGYIVRLPNSFQDTFTLELKPSKTPPPTHLTTGFTAEFIWKGTSYDRMQDALKKFAIDKKSISGYLYYKILGHQVVDISFDVPLPKEFSIPNFAQLNSSQSNAVSHVLQRPLSLIQGPPGTGKTVTSATIVYHLSKIHKDRILVCAPSNVAVDHLAAKLRDLGLKVVRLTAKSREDVESSVSNLALHNLVGRGAKGELKNLLKLKDEVGELSASDTKRFVKLVRKTEAEILNKADVVCCTCVGAGDKRLDTKFRTVLIDESTQASEPECLIPIVKGAKQVILVGDHQQLGPVILERKAADAGLKQSLFERLISLGHVPIRLEVQYRMNPYLSEFPSNMFYEGSLQNGVTIEQRTVPNSKFPWPIRGIPMMFWANYGREEISANGTSFLNRIEAMNCERIITKLFRDGVKPEQIGVITPYEGQRAYILQYMQMNGSLDKDLYIKVEVASVDAFQGREKDYIILSCVRANEQQAIGFLRDPRRLNVGLTRAKYGLVILGNPRSLARNTLWNHLLIHFREKGCLVEGTLDNLQLCTVQLVRPQPRKTERPMNAQFNVESEMGDFPKFQDFDAQSMVSFSGQIGDFGNAFVDNTELSSYINNEYWNFENFKSAFSQKQNRNEIDDRNLYQEEASHLNSNFARELQREEQKHELSKDFSNLGI
binding [2]: binds
binding [3]: binds
binding [4]: binds
binding [16]: no binding
binding [6]: binds
binding [17]: no binding
binding [8]: binds
binding [18]: no binding
binding [19]: no binding
binding [9]: binds
binding [10]: binds
binding [11]: binds
binding [12]: binds
binding [13]: binds

binding [14]: binds
binding [1]: binds
binding [15]: binds
binding [7]: no binding
B3: Scd6 (protein, UniProt P45978 1-349)
chain: MSQYIGKTISLISVTDNRYVGLLEDIDSEKGTVTLKEVRCFGTEGRKNWGPEEIYPNPTVYNSVKFNGSEVKDLSILDANINDIQPVVPQMMPPASQFPPQQAQSPPQAQAQAHVQTNPQVPKPESNVPAAVAGYGVYTPTSTETATASMNDKSTPQDTNVNSQSRERGKNGENEPKYQRNKNRSSNRPPQSNRNFKVDIPNEDFDFQSNNAKFTKGDSTDVEKEKELESAVHKQDESDEQFYNKKSSFFDTISTSTETNTNMRWQEEKMLNVDTFGQASARPRFHSRGLGRGRGNYRGNRGNRGRGGQRGNYQNRNNYQNDSGAYQNQNDSYSRPANQFSQPPSNVEF
binding [20]: binds
binding [2]: binds
binding [21]: binds
